Laboratory results as given in patent publication US11357246B2, “High intensity sweeteners” (Firmenich Incorporated, priority 2015, dated 2022).
Some of these results come from one statement about several compounds together.

Assay: Paired comparison testing (2-AFC) of sweet intensity versus 300 ppm Rebaudioside A by trained panelists
Format: in vivo
Settings: concentration not given
Procedure: Paired comparison tests (2-Alternative Forced Choice difference tests, i.e., 2-AFC) were used to determine sweet intensity equivalence between samples prepared with Rebaudioside A and the test sweet compound. Trained external panelists were used for the taste tests.
2-AFC tests, compound solutions were tested against 300 ppm Rebaudioside A to determine how they matched in sweet intensity. Panelists tasted both samples and indicated which sample was sweeter in each pair. Panelists rinsed their mouths with water prior to starting any test. Samples were presented to panelists in randomized, counterbalanced pairs and were labeled with 3-digit blinding codes. Panelists rinsed with water between samples as well as between pairs. There was a 90 second delay to clear the mouth of any tastes after each pair evaluation. Three replicates of each test were performed.
The 2-AFC data was analyzed to determine significant differences between 300 ppm Rebaudioside A and compound solutions using a probability table for a two-tailed test (alpha=0.05).
The paired comparison testing was performed using a 0.25 mL sample size, and all samples were made with Low Sodium Buffer (LSB) pH ˜7.1 and contain 0% ethanol.

C[C@H](CC[C@@H](O[C@@H]1O[C@H](CO[C@H]2O[C@H](CO)[C@@H](O)[C@H](O)[C@H]2O)[C@@H](O)[C@H](O)[C@H]1O[C@@H]1O[C@H](CO)[C@@H](O[C@H]2O[C@H](CO)[C@@H](O)[C@H](O)[C@H]2O)[C@H](O)[C@H]1O)C(C)(C)O)C1CC[C@@]2(C)C3CC=C4C(CC[C@H](O)C4(C)C)[C@]3(C)[C@H](O)C[C@]12C (stereo partly shown) [Compound 16]
Sweetness compared with Rebaudioside A (2-AFC): at least as sweet as Rebaudioside A
